Consider two substances from publication doi:10.1101/2021.03.31.437874.

By UniProt entry, the sequences of proteins in these tests, tags left out.
UniProt P18754: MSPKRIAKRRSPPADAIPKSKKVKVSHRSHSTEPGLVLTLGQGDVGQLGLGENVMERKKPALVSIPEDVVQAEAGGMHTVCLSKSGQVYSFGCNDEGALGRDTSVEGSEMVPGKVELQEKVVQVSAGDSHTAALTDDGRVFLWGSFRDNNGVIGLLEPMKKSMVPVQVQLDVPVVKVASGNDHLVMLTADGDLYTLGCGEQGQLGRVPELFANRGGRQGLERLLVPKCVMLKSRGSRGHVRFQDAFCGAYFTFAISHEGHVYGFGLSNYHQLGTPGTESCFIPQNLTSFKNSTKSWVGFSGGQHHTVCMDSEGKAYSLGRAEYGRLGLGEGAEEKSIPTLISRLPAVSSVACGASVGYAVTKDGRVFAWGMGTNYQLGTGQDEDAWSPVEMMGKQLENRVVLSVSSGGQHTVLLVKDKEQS
UniProt P39687: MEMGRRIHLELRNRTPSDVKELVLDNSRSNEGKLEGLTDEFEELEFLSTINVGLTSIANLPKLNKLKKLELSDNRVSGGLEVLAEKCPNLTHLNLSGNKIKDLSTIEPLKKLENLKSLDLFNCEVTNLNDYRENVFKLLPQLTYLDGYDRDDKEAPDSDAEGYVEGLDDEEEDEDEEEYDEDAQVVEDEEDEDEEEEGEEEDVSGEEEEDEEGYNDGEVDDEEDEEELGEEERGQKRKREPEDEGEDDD

The target of this test is T1, FLAG-Nup50 N-terminal fragment (aa 1-120 of the human sequence) (human) (UniProt Q9UKX7).
T1 sequence: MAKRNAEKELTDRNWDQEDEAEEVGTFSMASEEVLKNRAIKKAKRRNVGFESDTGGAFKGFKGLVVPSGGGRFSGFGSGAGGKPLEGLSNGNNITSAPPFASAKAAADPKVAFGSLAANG
In words: affinity purification with mass spectrometry.

Results are given in words; binding and its absence hold for the method and conditions named. Binding seen in cells or lysates may run through a third protein. Here binding means that the protein was enriched with, or labelled near, the bait; the list need not be complete. Tags and fused reporters may be left off the sequences shown.

With “RCC1, endogenous in HEK293T (from UniProt P18754 1-421) (enzyme)”, the binding result was “binds”. The value for “ANP32A, endogenous in HEK293T (from UniProt P39687 1-249)” was “binds”.
